# Article PMC11357106
# Chains of the proteins cited; added tags and fusions are not shown. Lines headed by an entry give the natural chain unless they say otherwise; changes in a name come on top.
# UniProt Q9LF51: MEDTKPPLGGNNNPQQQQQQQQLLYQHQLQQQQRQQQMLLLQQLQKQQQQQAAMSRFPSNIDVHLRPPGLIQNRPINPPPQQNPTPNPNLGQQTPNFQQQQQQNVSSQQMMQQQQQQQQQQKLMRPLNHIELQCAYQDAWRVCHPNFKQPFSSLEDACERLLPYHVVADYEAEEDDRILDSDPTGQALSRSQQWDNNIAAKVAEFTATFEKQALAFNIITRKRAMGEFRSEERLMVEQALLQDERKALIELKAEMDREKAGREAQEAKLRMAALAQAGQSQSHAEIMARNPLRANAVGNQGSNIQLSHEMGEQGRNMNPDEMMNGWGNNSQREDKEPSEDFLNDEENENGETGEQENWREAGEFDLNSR
# UniProt F4IPJ1: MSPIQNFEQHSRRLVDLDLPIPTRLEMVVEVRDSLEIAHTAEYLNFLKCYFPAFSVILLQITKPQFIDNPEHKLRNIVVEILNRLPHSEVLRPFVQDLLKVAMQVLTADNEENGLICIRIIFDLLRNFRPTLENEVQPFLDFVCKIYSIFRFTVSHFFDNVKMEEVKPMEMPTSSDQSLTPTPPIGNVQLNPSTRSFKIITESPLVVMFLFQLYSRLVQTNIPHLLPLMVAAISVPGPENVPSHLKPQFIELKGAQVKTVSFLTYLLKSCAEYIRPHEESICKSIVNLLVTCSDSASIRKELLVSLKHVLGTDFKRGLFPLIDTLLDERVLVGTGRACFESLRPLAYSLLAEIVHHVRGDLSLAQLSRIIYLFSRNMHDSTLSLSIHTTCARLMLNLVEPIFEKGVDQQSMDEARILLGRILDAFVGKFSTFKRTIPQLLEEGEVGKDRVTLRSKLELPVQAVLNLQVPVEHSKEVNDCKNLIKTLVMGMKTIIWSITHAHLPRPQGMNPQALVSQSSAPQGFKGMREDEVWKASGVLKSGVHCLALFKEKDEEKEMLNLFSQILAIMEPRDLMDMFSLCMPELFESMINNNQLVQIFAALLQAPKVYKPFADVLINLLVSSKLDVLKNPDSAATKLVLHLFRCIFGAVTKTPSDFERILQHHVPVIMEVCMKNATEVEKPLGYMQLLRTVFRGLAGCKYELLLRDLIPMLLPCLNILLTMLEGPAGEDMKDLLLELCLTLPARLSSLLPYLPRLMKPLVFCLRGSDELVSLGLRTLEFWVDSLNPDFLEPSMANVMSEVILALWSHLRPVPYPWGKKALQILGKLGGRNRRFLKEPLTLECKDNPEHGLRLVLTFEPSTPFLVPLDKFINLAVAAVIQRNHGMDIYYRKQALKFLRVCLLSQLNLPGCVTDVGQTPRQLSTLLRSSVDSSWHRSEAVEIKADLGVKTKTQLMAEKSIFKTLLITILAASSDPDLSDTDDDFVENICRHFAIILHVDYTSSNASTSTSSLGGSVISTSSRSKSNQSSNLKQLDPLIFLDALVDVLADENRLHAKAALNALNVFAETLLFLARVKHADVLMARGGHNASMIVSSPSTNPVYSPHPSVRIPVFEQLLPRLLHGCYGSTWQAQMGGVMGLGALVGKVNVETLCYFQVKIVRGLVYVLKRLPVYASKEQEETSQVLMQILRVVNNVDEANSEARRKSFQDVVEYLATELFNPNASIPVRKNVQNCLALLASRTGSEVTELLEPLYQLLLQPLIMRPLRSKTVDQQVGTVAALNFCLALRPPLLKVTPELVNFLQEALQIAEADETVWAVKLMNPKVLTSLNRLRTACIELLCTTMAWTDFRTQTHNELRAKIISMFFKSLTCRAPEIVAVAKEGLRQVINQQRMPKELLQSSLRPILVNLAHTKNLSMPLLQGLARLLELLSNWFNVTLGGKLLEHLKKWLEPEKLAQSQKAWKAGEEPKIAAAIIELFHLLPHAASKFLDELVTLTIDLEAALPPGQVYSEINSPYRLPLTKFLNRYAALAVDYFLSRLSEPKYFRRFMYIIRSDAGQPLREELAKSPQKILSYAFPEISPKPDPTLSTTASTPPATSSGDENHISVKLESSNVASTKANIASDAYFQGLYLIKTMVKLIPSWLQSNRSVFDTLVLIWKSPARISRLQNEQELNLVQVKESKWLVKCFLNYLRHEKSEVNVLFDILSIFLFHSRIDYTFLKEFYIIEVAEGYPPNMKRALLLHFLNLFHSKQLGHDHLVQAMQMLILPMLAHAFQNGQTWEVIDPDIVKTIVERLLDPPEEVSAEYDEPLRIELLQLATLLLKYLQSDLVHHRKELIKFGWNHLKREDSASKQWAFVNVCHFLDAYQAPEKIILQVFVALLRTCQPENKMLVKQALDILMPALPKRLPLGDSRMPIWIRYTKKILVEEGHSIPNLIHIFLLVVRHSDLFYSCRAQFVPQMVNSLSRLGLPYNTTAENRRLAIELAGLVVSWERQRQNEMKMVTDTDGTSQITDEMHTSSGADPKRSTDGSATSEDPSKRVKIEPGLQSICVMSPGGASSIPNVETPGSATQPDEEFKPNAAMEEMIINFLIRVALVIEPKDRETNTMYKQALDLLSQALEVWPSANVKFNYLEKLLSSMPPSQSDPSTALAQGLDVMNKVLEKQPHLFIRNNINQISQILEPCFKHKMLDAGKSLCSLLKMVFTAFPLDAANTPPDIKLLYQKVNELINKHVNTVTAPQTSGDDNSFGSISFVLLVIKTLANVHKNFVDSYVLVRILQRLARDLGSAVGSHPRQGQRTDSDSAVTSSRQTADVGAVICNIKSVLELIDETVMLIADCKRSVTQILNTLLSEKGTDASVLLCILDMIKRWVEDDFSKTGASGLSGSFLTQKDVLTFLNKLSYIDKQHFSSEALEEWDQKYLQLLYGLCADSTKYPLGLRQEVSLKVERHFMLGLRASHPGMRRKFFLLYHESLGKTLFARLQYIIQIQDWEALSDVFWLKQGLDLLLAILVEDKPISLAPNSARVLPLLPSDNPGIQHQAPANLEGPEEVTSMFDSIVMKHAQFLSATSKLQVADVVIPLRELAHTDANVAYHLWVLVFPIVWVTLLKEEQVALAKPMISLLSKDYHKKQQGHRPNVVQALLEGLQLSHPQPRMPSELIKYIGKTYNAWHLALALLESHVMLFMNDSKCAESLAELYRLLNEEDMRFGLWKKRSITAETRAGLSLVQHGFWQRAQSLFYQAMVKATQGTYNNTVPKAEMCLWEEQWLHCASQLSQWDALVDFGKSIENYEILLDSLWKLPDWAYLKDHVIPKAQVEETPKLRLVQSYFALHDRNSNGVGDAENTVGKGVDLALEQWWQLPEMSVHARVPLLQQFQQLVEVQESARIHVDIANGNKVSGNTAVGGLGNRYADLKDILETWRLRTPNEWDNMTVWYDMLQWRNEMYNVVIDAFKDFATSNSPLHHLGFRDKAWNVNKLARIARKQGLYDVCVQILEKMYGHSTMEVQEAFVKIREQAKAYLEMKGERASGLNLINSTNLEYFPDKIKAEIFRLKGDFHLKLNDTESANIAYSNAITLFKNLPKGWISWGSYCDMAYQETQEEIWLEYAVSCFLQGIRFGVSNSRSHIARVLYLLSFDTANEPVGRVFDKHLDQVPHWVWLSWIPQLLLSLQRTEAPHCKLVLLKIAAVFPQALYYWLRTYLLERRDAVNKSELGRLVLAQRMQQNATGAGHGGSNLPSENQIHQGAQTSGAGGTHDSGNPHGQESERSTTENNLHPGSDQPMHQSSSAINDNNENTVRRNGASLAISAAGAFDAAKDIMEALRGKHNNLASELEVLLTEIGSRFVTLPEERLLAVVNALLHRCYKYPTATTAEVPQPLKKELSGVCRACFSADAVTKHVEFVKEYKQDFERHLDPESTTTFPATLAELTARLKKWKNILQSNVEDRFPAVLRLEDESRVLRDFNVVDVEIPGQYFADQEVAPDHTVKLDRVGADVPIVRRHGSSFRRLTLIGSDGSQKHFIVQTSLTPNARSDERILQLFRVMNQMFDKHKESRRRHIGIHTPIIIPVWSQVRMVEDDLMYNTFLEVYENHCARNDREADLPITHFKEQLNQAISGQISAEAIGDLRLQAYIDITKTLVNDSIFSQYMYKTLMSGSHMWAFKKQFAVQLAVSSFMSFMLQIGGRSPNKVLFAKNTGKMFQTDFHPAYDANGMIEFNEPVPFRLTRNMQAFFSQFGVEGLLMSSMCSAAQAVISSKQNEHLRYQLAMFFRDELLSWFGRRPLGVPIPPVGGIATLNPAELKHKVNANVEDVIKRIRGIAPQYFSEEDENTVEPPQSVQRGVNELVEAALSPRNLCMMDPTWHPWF
# UniProt Q9SD86: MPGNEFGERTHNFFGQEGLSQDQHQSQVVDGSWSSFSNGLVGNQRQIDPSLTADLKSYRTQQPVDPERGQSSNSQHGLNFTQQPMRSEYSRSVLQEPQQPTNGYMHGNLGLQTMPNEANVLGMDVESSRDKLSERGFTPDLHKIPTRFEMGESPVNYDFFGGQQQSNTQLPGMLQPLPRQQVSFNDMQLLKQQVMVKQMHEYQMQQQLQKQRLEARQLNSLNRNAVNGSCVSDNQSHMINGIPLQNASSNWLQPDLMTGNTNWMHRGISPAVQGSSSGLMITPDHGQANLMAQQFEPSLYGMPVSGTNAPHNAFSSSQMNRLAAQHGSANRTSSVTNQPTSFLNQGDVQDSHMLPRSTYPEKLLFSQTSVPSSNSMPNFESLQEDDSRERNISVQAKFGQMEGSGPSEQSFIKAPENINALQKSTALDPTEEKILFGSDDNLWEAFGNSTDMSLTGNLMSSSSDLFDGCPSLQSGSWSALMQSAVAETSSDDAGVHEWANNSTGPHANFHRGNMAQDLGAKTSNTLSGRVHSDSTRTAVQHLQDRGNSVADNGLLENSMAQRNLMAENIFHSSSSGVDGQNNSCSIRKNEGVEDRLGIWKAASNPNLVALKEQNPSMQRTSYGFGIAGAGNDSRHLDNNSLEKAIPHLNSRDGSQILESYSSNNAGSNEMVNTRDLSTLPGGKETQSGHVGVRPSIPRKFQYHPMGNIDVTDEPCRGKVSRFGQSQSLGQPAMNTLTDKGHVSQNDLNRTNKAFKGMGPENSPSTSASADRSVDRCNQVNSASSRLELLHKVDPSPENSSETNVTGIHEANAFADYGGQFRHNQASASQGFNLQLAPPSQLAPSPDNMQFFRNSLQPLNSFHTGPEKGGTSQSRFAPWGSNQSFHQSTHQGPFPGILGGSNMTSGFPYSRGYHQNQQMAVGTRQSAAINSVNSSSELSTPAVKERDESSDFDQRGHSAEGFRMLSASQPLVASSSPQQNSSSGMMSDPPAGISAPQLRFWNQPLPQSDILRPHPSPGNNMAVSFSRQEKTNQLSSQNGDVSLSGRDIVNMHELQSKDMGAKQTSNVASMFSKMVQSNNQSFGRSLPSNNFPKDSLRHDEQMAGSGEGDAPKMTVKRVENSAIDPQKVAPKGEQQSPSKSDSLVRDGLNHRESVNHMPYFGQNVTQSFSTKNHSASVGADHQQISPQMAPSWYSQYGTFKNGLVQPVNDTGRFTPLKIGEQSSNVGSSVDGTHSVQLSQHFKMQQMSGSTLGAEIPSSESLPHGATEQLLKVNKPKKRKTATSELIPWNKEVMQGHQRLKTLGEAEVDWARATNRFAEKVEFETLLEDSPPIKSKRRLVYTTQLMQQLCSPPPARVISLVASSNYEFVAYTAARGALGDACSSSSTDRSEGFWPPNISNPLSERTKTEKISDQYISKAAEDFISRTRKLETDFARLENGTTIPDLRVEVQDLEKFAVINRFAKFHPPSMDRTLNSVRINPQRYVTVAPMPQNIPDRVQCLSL
# UniProt Q9LM88: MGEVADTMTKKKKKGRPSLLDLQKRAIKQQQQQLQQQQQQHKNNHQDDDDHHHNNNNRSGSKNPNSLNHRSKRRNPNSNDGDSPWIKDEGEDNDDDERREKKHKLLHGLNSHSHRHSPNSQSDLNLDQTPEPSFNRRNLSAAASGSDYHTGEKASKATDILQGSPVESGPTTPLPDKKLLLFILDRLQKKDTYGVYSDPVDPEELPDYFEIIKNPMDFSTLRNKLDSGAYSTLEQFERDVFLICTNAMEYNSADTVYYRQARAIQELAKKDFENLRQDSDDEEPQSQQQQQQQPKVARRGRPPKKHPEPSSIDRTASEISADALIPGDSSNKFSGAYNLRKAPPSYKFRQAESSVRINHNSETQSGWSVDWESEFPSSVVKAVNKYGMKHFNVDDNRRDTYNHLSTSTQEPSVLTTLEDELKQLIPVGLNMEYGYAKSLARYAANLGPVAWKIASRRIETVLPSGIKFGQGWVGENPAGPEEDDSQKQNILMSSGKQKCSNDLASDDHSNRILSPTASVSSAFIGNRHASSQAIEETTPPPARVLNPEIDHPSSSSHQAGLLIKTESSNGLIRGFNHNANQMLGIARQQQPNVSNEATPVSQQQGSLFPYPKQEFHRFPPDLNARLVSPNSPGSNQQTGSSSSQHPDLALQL
# No constants are given. Whether binding was seen depends on the method and setting. Binding seen in cells or lysates may run through a third protein. Here binding means that the protein was enriched with, or labelled near, the bait; the list need not be complete. Sequences can lack the tags named with a protein.
# T1: SCREAM (SCRM) fused to TurboID and Venus (SCRMp::SCRM-TbID-Venus) (Arabidopsis thaliana) (UniProt Q9LSE2)
# T1 sequence: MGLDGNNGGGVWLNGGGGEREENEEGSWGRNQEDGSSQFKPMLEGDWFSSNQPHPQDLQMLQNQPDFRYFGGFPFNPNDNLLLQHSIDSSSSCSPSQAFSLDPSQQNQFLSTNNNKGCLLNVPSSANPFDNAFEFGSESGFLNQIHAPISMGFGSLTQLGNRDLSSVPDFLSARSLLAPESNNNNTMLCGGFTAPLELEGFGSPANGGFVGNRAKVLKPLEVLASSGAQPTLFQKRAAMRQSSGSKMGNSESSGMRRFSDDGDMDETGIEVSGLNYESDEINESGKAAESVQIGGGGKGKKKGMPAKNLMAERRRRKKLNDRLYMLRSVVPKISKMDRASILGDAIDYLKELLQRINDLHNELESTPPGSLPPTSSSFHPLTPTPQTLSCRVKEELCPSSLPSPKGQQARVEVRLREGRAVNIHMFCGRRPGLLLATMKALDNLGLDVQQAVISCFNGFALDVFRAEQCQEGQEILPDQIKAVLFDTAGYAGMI
# Target: T1, SCREAM (SCRM) fused to TurboID and Venus (SCRMp::SCRM-TbID-Venus) (Arabidopsis thaliana)
# Test: proximity labelling; TurboID on SCRM (SCRMp::SCRM-TbID-Venus in homozygous scrm/ice1-2), 5-day-old seedlings, 50 uM biotin, streptavidin beads, LC-MS with label-free quantification; enrichment against WT, SPCHp- and FAMAp-driven nuclear TbID and untreated SCRM-TbID samples
row,Molecule,binding
1,BRIP2 (from UniProt Q9LF51),binds
2,"BRAHMA (BRM), core ATPase of the SWI/SNF complex (from UniProt Q6EVK6 1-2193)",binds
3,TRA1a (SAGA complex) (from UniProt F4IPJ1),binds
4,SYS3 (from UniProt Q9SD86),binds
5,"BRD1, core bromodomain-containing protein of the SWI/SNF complex (from UniProt Q9LM88)",binds
6,"SWI3D, regulatory subunit of the SWI/SNF complex (protein, UniProt Q8VY05 1-985) MEEKRRDSAGTLAFAGSSGDSPASEPMPAPRRRGGGLKRKANALGGSNFFSSAPSKRMLTREKAMLASFSPVHNGPLTRARQAPSIMPSAADGVKSEVLNVAVGADGEKPKEEEERNKAIREWEALEAKIEADFEAIRSRDSNVHVVPNHCGWFSWEKIHPLEERSLPSFFNGKLEGRTSEVYREIRNWIMGKFHSNPNIQIELKDLTELEVGDSEAKQEVMEFLDYWGLINFHPFPPTDTGSTASDHDDLGDKESLLNSLYRFQVDEACPPLVHKPRFTAQATPSGLFPDPMAADELLKQEGPAVEYHCNSCSADCSRKRYHCPKQADFDLCTECFNSGKFSSDMSSSDFILMEPAEAPGVGSGKWTDQETLLLLEALEIFKENWNEIAEHVATKTKAQCMLHFLQMPIEDAFLDQIDYKDPISKDTTDLAVSKDDNSVLKDAPEEAENKKRVDEDETMKEVPEPEDGNEEKVSQESSKPGDASEETNEMEAEQKTPKLETAIEERCKDEADENIALKALTEAFEDVGHSSTPEASFSFADLGNPVMGLAAFLVRLAGSDVATASARASIKSLHSNSGMLLATRHCYILEDPPDNKKDPTKSKSCSADAEGNDDNSHKDDQPEEKSKKAEEVSLNSDDREMPDTDTGKETQDSVSEEKQPGSRTENSTTKLDAVQEKRSSKPVTTDNSEKPVDIICPSQDKCSGKELQEPLKDGNKLSSENKDASQSTVSQSAADASQPEASRDVEMKDTLQSEKDPEDVVKTVGEKVQLAKEEGANDVLSTPDKSVSQQPIGSASAPENGTAGGNPNIEGKKEKDICEGTKDKYNIEKLKRAAISAISAAAVKAKNLAKQEEDQIRQLSGSLIEKQLHKLEAKLSIFNEAESLTMRVREQLERSRQRLYHERAQIIAARLGVPPSMSSKASLPTNRIAANFANVAQRPPMGMAFPRPPMPRPPGFPVPGSFVAATTMTGSSDPSPGSDNVSSV",binds

# The remaining lines, values ahead:
row,binding,Molecule
1,binds,SWP73B (from UniProt Q9FMT4)
2,binds,SYS1
3,binds,"SWI3C, regulatory subunit of the SWI/SNF complex (protein, UniProt Q9XI07 1-807) MPASEDRRGKWKRKKRGGLSAARKPKQEEEDMEEEDEENNNNNNEEMDDVENADELQQNGGATPDPGLGIGEVVEDSGSRISDFPAVVKRVVIRPHASVMAVVAAERAGLIGETRGQGSLPALENISFGQLQALSTVPADSLDLERSDGSSSAYVISPPPIMDGEGVVKRFGDLVHVLPMHSDWFAPNTVDRLERQVVPQFFSGKSPNHTPESYMEFRNAIVSKYVENPEKTLTISDCQGLVDGVDIEDFARVFRFLDHWGIINYCATAQSHPGPLRDVSDVREDTNGEVNVPSAALTSIDSLIKFDKPNCRHKGGEVYSSLPSLDGDSPDLDIRIREHLCDSHCNHCSRPLPTVYFQSQKKGDILLCCDCFHHGRFVVGHSCLDFVRVDPMKFYGDQDGDNWTDQETLLLLEAVELYNENWVQIADHVGSKSKAQCILHFLRLPVEDGLLDNVEVSGVTNTENPTNGYDHKGTDSNGDLPGYSEQGSDTEIKLPFVKSPNPVMALVAFLASAVGPRVAASCAHESLSVLSEDDRMKSEGMQGKEASLLDGENQQQDGAHKTSSQNGAEAQTPLPQDKVMAAFRAGLSAAATKAKLFADHEEREIQRLSANIVNHQLKRMELKLKQFAEIETLLMKECEQVEKTRQRFSAERARMLSARFGSPGGISPQTNNLQGMSLSTGGNNINSLMHQQHQQQQASATSQPSIIPGFSNNPQVQAQMHFMARQQQQQQQQQQQQQQAFSFGPRLPLNAIQTNAGSTASPNVMFGNNQLNNPAAAGAASINQPSFSHPMVRSSTGSGSGSGLGLN"
4,binds,"FAMA (protein, UniProt Q56YJ8 1-414) MDKDYSAPNFLGESSGGNDDNSSGMIDYMFNRNLQQQQKQSMPQQQQHQLSPSGFGATPFDKMNFSDVMQFADFGSKLALNQTRNQDDQETGIDPVYFLKFPVLNDKIEDHNQTQHLMPSHQTSQEGGECGGNIGNVFLEEKEDQDDDNDNNSVQLRFIGGEEEDRENKNVTKKEVKSKRKRARTSKTSEEVESQRMTHIAVERNRRKQMNEHLRVLRSLMPGSYVQRGDQASIIGGAIEFVRELEQLLQCLESQKRRRILGETGRDMTTTTTSSSSPITTVANQAQPLIITGNVTELEGGGGLREETAENKSCLADVEVKLLGFDAMIKILSRRRPGQLIKTIAALEDLHLSILHTNITTMEQTVLYSFNVKITSETRFTAEDIASSIQQIFSFIHANTNISGSSNLGNIVFT"
5,binds,"SPT20/PHL (SAGA complex) (protein, UniProt F4IDB2 1-1325) MGVSFKISKVGRKFRPKISTELATPDSPKAIVLSGKPKATDDSNIGDVSGFSKPSLPDISPDHEVSFILSLYPNGYSIGKTSEAMQQISFRDVPKVLHPYDRAAEGLLSAIEAGRLPGDILEDIPCKFVDGVVICEVHDYRKHTSSQVSPVINKLRLKMSLENVVKDIPSMSDNSWTYGDLMEVESRILKALQPELCLDPLPRLDRLSKNPLTAKLDLSLSTLRRKRLRQMAEVTVMSQNKIQGKKVCIDRLPESSERGNLPGHLIMQQTNNNQAIQNLGTNMLAGLRSQPLQDAPNSSLALVPPQQQRYMGIGSTRNTQDQGSNSVSVSGASPGGLDAMLPYGSDSMNPGTSFHRKRESQEGQMSSMPGLNKRTRVSHMGPDGVPQQQLGQRMDGLHGSDTNWKNTLLQHQDMLGRSIQYPNTSIQRFSPHQMEGVMNQEGGPMQFPASQQGGMKYTSKEEPFETGKIDGGTRNNIPGVGSDANDLDPRIQSRMPHNAFIRSNFPQTSWNVNPGQQIEKEPKKEEQFSRRISAQSPRLSAGGPPQSPLSSKSGEFSGGSMGTHYGAVAAAQKDKAVTSIPAIGATQSVGSSANEAMQQRQHQAQMAAKRRTNSLPKTQVISTVGSPVSVNTISVPVNARSPSVGPQTLGDHAILDRFSKIERVAARYQLNCKKHKVDEYSRRPRVYAKQPLTVCLSNLSNEEVFKDEDEALSKSIFGGSMNTYKTRVIHFGQMERVMQGSVPSFIPRNRTRLVMSEKAVDGTVAWYQGDVDEGDVFQAEDFLLALPNTHIADLLATQFKSLMAREGYMIEEHIMAKPNRGDTGPISSHPNSAGGYPRGYSANDMQQYGDAVAGQASGEASKHGNTGNTPNNSTQNILANARMVPPTNSQALQMSQGLLSGVSMPMQPQQLDPQQSALLSSHSQQKNQQSMFTQQQHPQMQRPSMILPTNPLSAINSMSQSSGMQPGGQMANKYSPLQLQMLQQQQQAAVQKKIMMGLGSGVGMGMGMGMGMGMGSMGNSIAGLGALGNQLNMAGRGMGGTGISSSMSVPGIGNMGQNPMNLNPASNLNAISQQLRSGALTPQQNALFTQIRMGMANRGGVMGAPQTGISGVSGTRQMHPSSAGLSMLDQNRANLQRAAAMGNMGPPKLMPGMMNLYMNQQQQQQQLQQQPQQQQLQHQQQLQQPMSQPSQQLAQSPQQQQQLQQHEQPQQAQQQQQATASPLQSVLSPPQVGSPSAGITQQQLQQSSPQQMSQRTPMSPQQVNQRTPMSPQISSGAMHPMSTSNLEGCPASPQLSSQTMGSVGSITNSPMELQGPKNNSAGNNS"
6,binds,"… (SPCH) (protein, UniProt Q700C7 1-364) MQEIIPDFLEECEFVDTSLAGDDLFAILESLEGAGEISPTAASTPKDGTTSSKELVKDQDYENSSPKRKKQRLETRKEEDEEEEDGDGEAEEDNKQDGQQKMSHVTVERNRRKQMNEHLTVLRSLMPCFYVKRGDQASIIGGVVEYISELQQVLQSLEAKKQRKTYAEVLSPRVVPSPRPSPPVLSPRKPPLSPRINHHQIHHHLLLPPISPRTPQPTSPYRAIPPQLPLIPQPPLRSYSSLASCSSLGDPPPYSPASSSSSPSVSSNHESSVINELVANSKSALADVEVKFSGANVLLKTVSHKIPGQVMKIIAALEDLALEILQVNINTVDETMLNSFTIKIGIECQLSAEELAQQIQQTFC"
7,binds,"LUH (protein, UniProt O48847 1-787) MAQSNWEADKMLDVYIYDYLVKKKLHNTAKSFMTEGKVSPDPVAIDAPGGFLFEWWSVFWDIFIARTNEKHSEAAAAYIEAQQGKAKEQQMQIQQLQMMRQAQMQRRDPNHPSLGGPMNAIGSEGMIGQSNASALAAKMYEERMKQPNPMNSETSQPHLDARMALLKSATNHHGQIVQGNHQGGVSAALQQIQSRTQQPTEIKTEVNLGTSPRQLPVDPSTVYGQGILQSKPGMGSAGLNPGVSGLPLKGWPLTGIEQMRPGLGGPQVQKSFLQNQSQFQLSPQQQQHQMLAQVQAQGNMTNSPMYGGDMDPRRFTGLPRGNLNPKDGQQNANDGSIGSPMQSSSSKHISMPPVQQSSSQQQDHLLSQQSQQNNRKRKGPSSSGPANSTGTGNTVGPSNSQPSTPSTHTPVDGVAIAGNMHHVNSMPKGPMMYGSDGIGGLASSANQLLQDDMDQFGDVGALEDNVESFLSQDDGDGGSLFGTLKRNSSVHTETSKPFSFNEVSCIRKSASKVICCSFSYDGKLLASAGHDKKVFIWNMETLQVESTPEEHAHIITDVRFRPNSTQLATSSFDKTIKIWDASDPGYFLRTISGHAAPVMSIDFHPKKTELLCSCDSNNDIRFWDINASCVRAVKGASTQVRFQPRTGQFLAAASENTVSIFDIENNNKRVNIFKGHSSNVHSVCWSPNGELVASVSEDAVKLWSLSSGDCIHELSNSGNKFHSVVFHPSYPDLLVIGGYQAIELWNTMENKCMTVAGHECVISALAQSPSTGVVASASHDKSVKIWK"
